Measured values as given in paper PMC4367295.
Construct, isoform or probe ends are uncertain for at least one entry. At least one verdict was read from the data and is not stated in words by the source.

Test system: hMCM2-7 complex (MCM2, MCM3, MCM4, MCM5, MCM6, MCM7) (Homo sapiens)
Experiment: negative-stain single-particle EM (23 A), conformational change on DNA binding
Settings: 4 mM ATP, 10 mM Mg acetate, 60 nM DNA, EM binding: 50 mM HEPES pH 7.5, 2 mM DTT, 50 ug/ml BSA, 10 mM magnesium acetate, 60 min at 37 C, hMCM 8 ug, recombinant protein

“CCTGGCGTTACCCAACTTAATCGCCTTGCAGCACATCCCCCTTTCTTTTTTTTTTTTTTTTTTTTTTTTTTTTTTTTTTTTTTTTTTTTTTTTTTTTTTTTTTTT / TTTTTTTTTTTTTTTTTTTTTTTTTTTTTTTTTTTGAAAGGGGGATGTGCTGCAAGGCGATTAAGTTGGGTAACGCCAGG [HF150/HR80 forked DNA]”: binds.
